Data from patent US9982005B2, “Macrolides and methods of their preparation and use” (President and Fellows of Harvard College, priority 2013, dated 2018).
At least one compound was matched to its structure with a doubt left.

Assays:
[1] = test system: HI175 H. influenzae ATCC49247; experiment: broth dilution MIC, H. influenzae HI175; assay type: cell-based; parameters: unit not given beside the values
Source text: (§1) We have collected MIC data for a total of 50 novel macrolides that this platform has produced against over 21 unique strains of B. subtilis, E. coli, S. aureus, S. pneumoniae, and H. influenzae, including several multidrug-resistant strains, with a special focus on macrolide resistant mechanisms (vide supra). Azithromycin was included as a control macrolide. CLSI standard procedures for broth dilution MIC determination were used. […] These genotypes can be constitutive or inducible. The finding that C4-epi (unnatural) isomers of the “azaketolide” macrolide class have enhanced activities relative to C4 natural isomers is very exciting.

HI281 H. influenzae = experiment: broth dilution MIC, H. influenzae HI281; assay type: cell-based; parameters: unit not given beside the values
Source text: as §1

How did the MIC [1] turn out when CCC[C@@H]1C[C@@H](C(=O)N[C@@H]([C@H]2O[C@H](SC)[C@H](O)[C@@H](O)[C@H]2O)[C@H](C)Cl)N(C)C1 [Clindamycin, clindamycin, reference compound] was run?
Its MIC is 16->32.

And the MIC (HI281 H. influenzae)?
Its MIC is 16->32.
